This note sets out measurements from article PMC3240588.

Sequences of proteins named here, by UniProt entry; tags and fusion partners are left off.
UniProt O02219: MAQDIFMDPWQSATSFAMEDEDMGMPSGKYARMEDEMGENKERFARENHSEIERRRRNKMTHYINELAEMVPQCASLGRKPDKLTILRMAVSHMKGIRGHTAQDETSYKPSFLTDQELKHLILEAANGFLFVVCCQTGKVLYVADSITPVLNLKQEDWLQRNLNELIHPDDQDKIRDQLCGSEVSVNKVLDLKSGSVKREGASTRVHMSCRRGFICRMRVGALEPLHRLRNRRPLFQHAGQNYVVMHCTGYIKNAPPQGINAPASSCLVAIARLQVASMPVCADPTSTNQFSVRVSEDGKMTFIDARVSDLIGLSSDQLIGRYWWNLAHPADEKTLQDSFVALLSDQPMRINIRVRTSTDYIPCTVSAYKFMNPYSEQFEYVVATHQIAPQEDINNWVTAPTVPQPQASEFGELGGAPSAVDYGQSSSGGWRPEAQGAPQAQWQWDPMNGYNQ

No constants are given. Whether binding was seen depends on the method and setting. Some entries that bind do so weakly or less than the wild type.

The target of the test is AHA-1, C. elegans (orthologue of mammalian HIF-1beta/ARNT) (C. elegans) (UniProt O02219). Description: native gel or EMSA; HIF-1 and/or AHA-1 synthesized in reticulocyte lysate (1-4 ul) incubated singly or together with 32P-labeled ftn-1 IDE DNA probe; 10 mM Tris-HCl pH 7.5, 4% glycerol, 1 mM MgCl2, 1 mM DTT, poly dI-dC, room temperature 30 min; 5% non-denaturing polyacrylamide gel; the two proteins are seen together only as a complex on the DNA probe.

B1: HIF-1 (hypoxia-inducible factor-1), C. elegans (protein, UniProt G5EGD2 1-719)
chain: MEDNRKRNMERRRETSRHAARDRRSKESDIFDDLKMCVPIVEEGTVTHLDRIALLRVAATICRLRKTAGNVLENNLDNEITNEVWTEDTIAECLDGFVMIVDSDSSILYVTESVAMYLGLTQTDLTGRALRDFLHPSDYDEFDKQSKMLHKPRGEDTDTTGINMVLRMKTVISPRGRCLNLKSALYKSVSFLVHSKVSTGGHVSFMQGITIPAGQGTTNANASAMTKYTESPMGAFTTRHTCDMRITFVSDKFNYILKSELKTLMGTSFYELVHPADMMIVSKSMKELFAKGHIRTPYYRLIAANDTLAWIQTEATTITHTTKGQKGQYVICVHYVLGIQGAEESLVVCTDSMPAGMQVDIKKEVDDTRDYIGRQPEIVECVDFTPLIEPEDPFDTVIEPVVGGEEPVKQADMGARKNSYDDVLQWLFRDQPSSPPPARYRSADRFRTTEPSNFGSALASPDFMDSSSRTSRPKTSYGRRAQSQGSRTTGSSSTSASATLPHSANYSPLAEGISQCGLNSPPSIKSGQVVYGDARSMGRSCDPSDSSRRFSALSPSDTLNVSSTRGINPVIGSNDVFSTMPFADSIAIAERIDSSPTLTSGEPILCDDLQWEEPDLSCLAPFVDTYDMMQMDEGLPPELQALYDLPDFTPAVPQAPAARPVHIDRSPPAKRMHQSGPSDLDFMYTQHYQPFQQDETYWQGQQQQNEQQPSSYSPFPMLS
Turning to B1, the binding result is reported as “binds”.
